# In patent publication US6866845B1, “Compositions and methods for the treatment of sepsis” (The Regents of the University of Michigan, priority 1999, dated 2005):
# Protein sequences, listed by entry. Tags and fused reporters are not part of them.
# UniProt P21730: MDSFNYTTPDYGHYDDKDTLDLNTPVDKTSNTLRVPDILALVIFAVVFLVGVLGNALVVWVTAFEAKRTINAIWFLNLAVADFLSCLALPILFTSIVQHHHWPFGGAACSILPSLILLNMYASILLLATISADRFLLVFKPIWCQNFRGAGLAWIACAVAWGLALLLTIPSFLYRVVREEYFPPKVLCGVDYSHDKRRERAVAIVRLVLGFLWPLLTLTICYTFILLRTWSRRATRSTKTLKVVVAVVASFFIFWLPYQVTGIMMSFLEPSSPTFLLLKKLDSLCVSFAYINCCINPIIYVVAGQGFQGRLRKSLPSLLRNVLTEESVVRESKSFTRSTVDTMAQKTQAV
# These are yes or no findings as the source states them, for the method shown. Some results given as binding are weak or reduced against the parent protein; the word gives no strength.
# Target: human peripheral blood neutrophils (surface sites that bind human C5a peptide) (human) (UniProt P21730)
# Assay: competition with 125I-hC5a on human neutrophils, peptide:hC5a 10:1
row,binding,Binder
1,binds,MLQKKIEEIAAKYKHSVVKK [peptide A (residues 1-20 of human C5a peptide)]
2,binds,CCYDGASVNNDETCEQRAAR [peptide M (residues 21-40 of human C5a peptide)]
